{"source": "patent US12350350B2", "about": "“Hyperpolarisation in aqueous media via sabre” (UNIVERSITY OF YORK, priority 2017, dated 2025)", "key": {"[1]": {"assay": "SABRE 13C and 15N hyperpolarisation of pyrazine in CDCl3/D2O", "conditions": "20-fold excess pz, IMes iridium catalyst 5 mM, 0.3 ml CDCl3 + 0.3 ml D2O, NaCl 0.34 mmol"}, "[2]": {"assay": "1D/2D MRI of SABRE hyperpolarised substrate, distribution between organic and aqueous phase", "conditions": "7-fold excess, CDCl3/D2O, NaCl, RARE protocol"}, "[3]": {"assay": "SABRE 1H hyperpolarisation, NMR signal enhancement in biphasic organic/D2O solvent"}}}
{"compound": "c1cnccn1", "note": "[pyrazine]", "values": [{"measurement": "13C signal enhancement", "setting": "[1]; transfer at 30 G", "value": 180, "unit": "fold"}, {"measurement": "15N signal enhancement", "setting": "[1]; transfer at ~0 G in μ-metal shield", "value": 3000, "unit": "fold"}]}
{"compound": "c1ccnnc1", "note": "[pyridazine]", "values": [{"measurement": "2D MRI signal in the aqueous phase after phase separation", "setting": "[2]", "value": "excellent signal enhancement"}, {"measurement": "2D MRI signal in the organic phase after phase separation", "setting": "[2]", "value": "almost no hyperpolarised pyridazine response"}]}
{"compound": "[2H]c1cc([2H])c(C(N)=O)cn1", "note": "[d2-nicotinamide]", "values": [{"measurement": "enhancement in aqueous phase", "setting": "[3]; D2O layer containing at least 4.5% (weight) of NaCl", "value": "High enhancement"}]}
{"compound": "Fc1cccnc1", "note": "[3-fluoropyridine]", "values": [{"measurement": "enhancement, organic phase compared with aqueous phase", "setting": "[3]; CDCl3/D2O 0.3:0.3, NaCl 0.017 mmol", "value": "enhanced much better in organic phase"}]}
